# Data taken from PubChem BioAssay (EPA / NIEHS).
# “And” between values parts separate entries of the source, which are not always exact repeats. Equal values may be shown once. This list was built around the results that the source calls inconclusive (neither active nor inactive); the mix of calls is not that of the screen. Potencies of inconclusive entries are doubtful fits and often do not repeat. The source made the active and inactive calls. The calls were made as follows: active = hit-call score of the fitted dose curve at least 0.9, where 1 is the maximum; inconclusive = response in the unintended direction; inactive = score below 0.9.
# Read-out: ABC Transporter (ABCB11), ABCB11 (gene 8647)
# Assay: CLD_ABCB11_48hr: CellzDirect (CLD) Gene Expression Assay for ABC Transporter (ABCB11) at 48 hours (AID 2283697)
# Experimental: CLD_48hr is a cell-based, multiplexed-readout assay that uses hepatocyte, a human liver primary cell, with measurements taken at 48 hours after chemical dosing in a 96-well plate.CLD_ABCB11_48hr is one of 16 assay component(s) measured or calculated from the CLD_48hr assay. It is designed to make measurements of mRNA induction, a form of inducible reporter, as detected with chemiluminescence signals by Quantitative Nuclease Protection Assay (qNPA) technology.Data from the assay component CLD_ABCB11_48hr was analyzed at the endpoint, CLD_ABCB11_48hr, in the positive analysis fitting direction relative to DMSO as the negative control and baseline of activity. Using a type of inducible reporter, gain-of-signal activity can be used to understand changes in the reporter gene as they relate to the gene ABCB11. Furthermore, this assay endpoint can be referred to as a primary readout. To generalize the intended target to other relatable targets, this assay endpoint is annotated to the transporter intended target family, where subfamily is ABC transporter.
# Human hepatocyte cultures were treated daily for two consecutive days with fresh dosing solutions containing appropriate concentrations of the 320 ToxCast chemicals (chemical identities were blinded to CellzDirect and other ToxCast collaborators), vehicle control (0.2% DMSO), and positive control inducers as summarized in Table 1. Due to the large number of treatment groups and chemicals examined, the ToxCast chemicals were divided into two groups (spanning two independent cultures of hepatocytes from separate donor preparations (Hu778: ToxCast plates 1 and 2; Hu776: ToxCast plates 3 and 4). Each preparation of human hepatocyte cultures was treated with respective vehicle control, medium only control, set of six positive controls/reference chemicals for the five hepatic receptor pathways, and a subset of eight of the ToxCast chemicals (indoxacarb, pyrithiobac-sodium, norflurazon, cyhalofop-butyl, methomyl, thiram, acetochlor, and propiconazole). These replicate data, coupled with internal replicates designed within the blinded ToxCast chemical library, provided additional data to evaluate interindividual differences between hepatocyte preparations and their potential impact on chemical profiles.Cell morphology and integrity were evaluated using phase-contrast microscopy as an indicator of hepatocyte cell health (Tyson & Green, 1987). Cultures for each treatment group (i.e., media, vehicle [0.2% DMSO], positive control inducers [multiple concentrations], and the ToxCast chemicals [multiple concentrations]) were observed and cell morphology was assessed relative to vehicle control cultures at each harvest time point (0, 6, 24, or 48 h). […] Images were evaluated at the conclusion of the study to assess changes in cell integrity and account for the effects of chemical exposure on uncharacteristic changes in concentration-dependent gene expression profiles. The results from these determinations of apparent cytotoxicity were annotated (yes/no) alongside the corresponding qNPA data for reference.At the conclusion of each treatment period, hepatocyte cultures (96-well) were washed with 1 volume of HBSS, lysed by addition of 25 ul ArrayPlate lysis buffer (HTG, Tucson, AZ), and 70 ul/well of Denaturation Oil, denatured by incubation at 95C for 10 min, and frozen at approximately -70C until analysis by nuclease protection assay (qNPA) (Roberts et al., 2007). For qNPA analysis, cell lysates were thawed at 50C for approximately 30 min, qNPA probes were added, and samples were incubated at 95C for 10 min to begin the detection process by denaturing the target RNA, dissociating the duplexes and secondary structure hybridization. At the conclusion of the hybridization period, S1 nuclease reagent was added to each sample to digest all nonprotected nucleotides at 50C for 60-90 min. […]
SMILES,AC50,outcome
N#CC(CCc1ccc(Cl)cc1)(Cn1cncn1)c1ccccc1 (stereo not given),inconclusive: 2.06 µM,
COc1nc(NC(C)C)nc(NC(C)C)n1,,inactive
CCN(CC)c1nc(C)cc(OP(=S)(OC)OC)n1,inconclusive: 9.26 µM,
CNC(=S)S,inconclusive: 20 µM,
COc1cccc(C(=O)NN(C(=O)c2cc(C)cc(C)c2)C(C)(C)C)c1C,,inactive
CNC(=O)Oc1cccc(N=CN(C)C)c1,inconclusive: 0.556 µM,
O=C1C2CC=CCC2C(=O)N1SC(Cl)(Cl)Cl (stereo not given),,inactive
CN(C)C(=S)SSC(=S)N(C)C,,inactive
N#Cc1nn(-c2c(Cl)cc(C(F)(F)F)cc2Cl)c(N)c1S(=O)C(F)(F)F (stereo not given),inconclusive: 8.75 µM,
C=CCC1=C(C)C(OC(=O)C2C(C=C(C)C)C2(C)C)CC1=O (stereo not given),inconclusive: 20 µM,
CNC(=O)Oc1cccc2ccccc12,inconclusive: 33.3 µM,
CC1(C)CCC(=Cc2ccc(Cl)cc2)C1(O)Cn1cncn1 (stereo not given),inconclusive: 3 µM,
CC(C)Oc1cccc(NC(=O)c2ccccc2C(F)(F)F)c1,inconclusive: 20 µM,
CCCN(CCC)c1c([N+](=O)[O-])cc(S(N)(=O)=O)cc1[N+](=O)[O-],inconclusive: 20 µM,
CC(Oc1ccc(Cl)cc1Cl)C(=O)O (stereo not given),inconclusive: 20 µM,
C#CCN1C(=O)COc2cc(F)c(N3C(=O)C4=C(CCCC4)C3=O)cc21,inconclusive: 20 µM,
O=C(O)CCCOc1ccc(Cl)cc1Cl,inconclusive: 6.72 µM,
CC(C)OC(=O)Nc1cccc(Cl)c1,inconclusive: 20 µM,
CCC(=NOC/C=C/Cl)C1=C(O)CC(C2CCOCC2)CC1=O (stereo not given),,inactive
Cn1c(-c2ccccc2)cc(-c2ccccc2)[n+]1C,inconclusive: 20 µM,

# 2 records picked at random from those above, as already listed:
SMILES,AC50,outcome
N#Cc1nn(-c2c(Cl)cc(C(F)(F)F)cc2Cl)c(N)c1S(=O)C(F)(F)F (stereo not given),inconclusive: 8.75 µM,
C#CCN1C(=O)COc2cc(F)c(N3C(=O)C4=C(CCCC4)C3=O)cc21,inconclusive: 20 µM,

# (continued)

SMILES,AC50,outcome
CCC(C)(C)C(=O)OC1=C(c2ccc(Cl)cc2Cl)C(=O)OC12CCCCC2,inconclusive: 20 µM,
CCOc1nc(NC)nc(NC(=O)NS(=O)(=O)c2ccccc2C(=O)OC)n1,,inactive
CCc1cccc(CC)c1N(COC)C(=O)CCl,inconclusive: 20 µM,
CCc1ccc(C(=O)NN(C(=O)c2cc(C)cc(C)c2)C(C)(C)C)cc1,,inactive
CCCCNC(=O)OCC#CI,inconclusive: 20 µM and inconclusive: 33.8 µM,
COP(N)(=O)SC (stereo not given),inconclusive: 20 µM,
COP(=O)(OC)OC(Br)C(Cl)(Cl)Br (stereo not given),inconclusive: 20 µM,
Nc1c(Cl)cc([N+](=O)[O-])cc1Cl,inconclusive: 0.0004 µM,
CC(C)(C)C(O)C(Oc1ccc(Cl)cc1)n1cncn1 (stereo not given),inconclusive: 1.9 µM,
Cc1cc(C2CC2)nc(Nc2ccccc2)n1,inconclusive: 20 µM,
CCOP(=S)(Oc1cnc(C(C)(C)C)nc1)OC(C)C (stereo not given),,inactive
CCC(C)(CC)c1cc(NC(=O)c2c(OC)cccc2OC)on1,inconclusive: 3.63 µM,
[2H]C1([2H])[n+]2ccccc2-c2cccc[n+]2C1([2H])[2H],inconclusive: 20 µM,
CN(C)NC(=O)CCC(=O)O,,inactive
CCOP(=O)(OCC)Oc1nc(Cl)c(Cl)cc1Cl,,inactive
Cc1cc(Cl)ccc1OCC(=O)O,inconclusive: 34.7 µM,
OC(c1ccc(Cl)cc1)(c1ccc(Cl)cc1)C(Cl)(Cl)Cl,,inactive
Oc1cc(Cl)ccc1Oc1ccc(Cl)cc1Cl,,inactive
CCCN(CCC)c1c([N+](=O)[O-])cc(C(F)(F)F)cc1[N+](=O)[O-],,inactive
Nc1c(Cl)c(Cl)nc(C(=O)O)c1Cl,inconclusive: 20 µM,
